From patent publication US5824484
A weaker result is weaker than the reference pair of the same experiment.

Sequences of proteins named here, by UniProt entry; tags and fusion partners are left off. A change or cut given only in a name is not applied to a line headed by its entry.
UniProt P19793: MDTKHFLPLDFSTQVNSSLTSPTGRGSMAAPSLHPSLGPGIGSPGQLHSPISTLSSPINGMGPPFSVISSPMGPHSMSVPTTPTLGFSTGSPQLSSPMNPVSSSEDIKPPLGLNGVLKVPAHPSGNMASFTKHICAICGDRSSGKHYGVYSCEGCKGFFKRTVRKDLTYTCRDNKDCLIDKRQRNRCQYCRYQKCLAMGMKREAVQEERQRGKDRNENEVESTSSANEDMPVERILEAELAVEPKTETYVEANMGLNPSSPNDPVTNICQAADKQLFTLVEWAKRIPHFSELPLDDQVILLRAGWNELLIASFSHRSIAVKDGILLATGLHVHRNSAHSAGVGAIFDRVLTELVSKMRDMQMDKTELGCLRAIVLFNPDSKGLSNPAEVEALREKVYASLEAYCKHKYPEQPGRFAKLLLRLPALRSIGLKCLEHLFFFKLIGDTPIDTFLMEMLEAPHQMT

Target: RXR alpha homodimer (UniProt P19793)
Experiment: EMSA
Conditions: with 9-cis-RA; considerably weaker than RAR-RXR heterodimer; protein translated in vitro; label: 32P

Q: Does “GATCTGTAGGGTTCACCGAAAGTTCACTCAGATC (double strand) [betaRARE]” bind?
A: binds more weakly
